Measurements from the supplement of paper PMC10849652.
The list shows a part of the results.

By UniProt entry, the sequences of proteins in these tests, tags left out. Where a name states a change or a piece, a line headed by the entry shows the natural chain unless it says otherwise.
UniProt Q9Y6D5: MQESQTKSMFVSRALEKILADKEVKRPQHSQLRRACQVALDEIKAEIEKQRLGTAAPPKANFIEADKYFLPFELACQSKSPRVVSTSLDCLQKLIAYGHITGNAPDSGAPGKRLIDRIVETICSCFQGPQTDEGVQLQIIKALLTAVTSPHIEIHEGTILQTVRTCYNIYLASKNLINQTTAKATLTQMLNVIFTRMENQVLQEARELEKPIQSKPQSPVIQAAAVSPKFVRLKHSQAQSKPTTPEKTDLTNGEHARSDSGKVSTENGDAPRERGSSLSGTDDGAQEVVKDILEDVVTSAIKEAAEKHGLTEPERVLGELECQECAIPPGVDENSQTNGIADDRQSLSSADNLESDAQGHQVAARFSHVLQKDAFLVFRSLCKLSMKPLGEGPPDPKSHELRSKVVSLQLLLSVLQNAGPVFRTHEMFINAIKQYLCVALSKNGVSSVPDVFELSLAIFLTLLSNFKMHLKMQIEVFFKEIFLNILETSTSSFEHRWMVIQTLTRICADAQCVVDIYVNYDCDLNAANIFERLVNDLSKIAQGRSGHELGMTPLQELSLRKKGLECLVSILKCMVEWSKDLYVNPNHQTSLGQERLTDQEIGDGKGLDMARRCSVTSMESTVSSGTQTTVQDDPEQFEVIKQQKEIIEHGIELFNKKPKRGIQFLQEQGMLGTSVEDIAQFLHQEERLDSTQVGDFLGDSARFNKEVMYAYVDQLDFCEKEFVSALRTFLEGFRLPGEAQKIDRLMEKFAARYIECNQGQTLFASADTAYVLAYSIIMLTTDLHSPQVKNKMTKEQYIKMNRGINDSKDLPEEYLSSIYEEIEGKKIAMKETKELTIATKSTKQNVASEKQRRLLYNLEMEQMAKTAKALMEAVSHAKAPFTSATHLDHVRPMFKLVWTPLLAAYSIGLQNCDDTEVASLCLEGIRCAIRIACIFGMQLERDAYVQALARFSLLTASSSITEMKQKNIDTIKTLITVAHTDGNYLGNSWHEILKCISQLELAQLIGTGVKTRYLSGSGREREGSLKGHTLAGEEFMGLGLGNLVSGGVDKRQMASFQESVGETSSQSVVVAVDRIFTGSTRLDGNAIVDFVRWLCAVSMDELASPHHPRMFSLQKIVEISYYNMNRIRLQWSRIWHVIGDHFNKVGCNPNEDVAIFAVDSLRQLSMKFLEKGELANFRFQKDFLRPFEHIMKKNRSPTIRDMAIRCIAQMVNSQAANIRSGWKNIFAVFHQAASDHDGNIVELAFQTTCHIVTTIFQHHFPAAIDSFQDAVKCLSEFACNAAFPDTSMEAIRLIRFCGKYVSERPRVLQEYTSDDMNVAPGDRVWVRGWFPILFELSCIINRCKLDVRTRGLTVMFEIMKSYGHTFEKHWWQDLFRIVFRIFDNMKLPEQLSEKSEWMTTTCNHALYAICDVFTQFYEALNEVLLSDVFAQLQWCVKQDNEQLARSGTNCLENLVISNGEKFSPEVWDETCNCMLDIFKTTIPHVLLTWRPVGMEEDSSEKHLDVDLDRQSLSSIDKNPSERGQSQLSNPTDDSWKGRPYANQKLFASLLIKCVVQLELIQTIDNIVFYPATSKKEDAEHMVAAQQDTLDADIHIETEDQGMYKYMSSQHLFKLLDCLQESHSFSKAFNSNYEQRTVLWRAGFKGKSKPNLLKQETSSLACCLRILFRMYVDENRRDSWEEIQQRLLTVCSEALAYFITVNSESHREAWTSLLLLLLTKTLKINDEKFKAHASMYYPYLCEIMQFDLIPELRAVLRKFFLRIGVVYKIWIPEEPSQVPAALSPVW
UniProt P16157: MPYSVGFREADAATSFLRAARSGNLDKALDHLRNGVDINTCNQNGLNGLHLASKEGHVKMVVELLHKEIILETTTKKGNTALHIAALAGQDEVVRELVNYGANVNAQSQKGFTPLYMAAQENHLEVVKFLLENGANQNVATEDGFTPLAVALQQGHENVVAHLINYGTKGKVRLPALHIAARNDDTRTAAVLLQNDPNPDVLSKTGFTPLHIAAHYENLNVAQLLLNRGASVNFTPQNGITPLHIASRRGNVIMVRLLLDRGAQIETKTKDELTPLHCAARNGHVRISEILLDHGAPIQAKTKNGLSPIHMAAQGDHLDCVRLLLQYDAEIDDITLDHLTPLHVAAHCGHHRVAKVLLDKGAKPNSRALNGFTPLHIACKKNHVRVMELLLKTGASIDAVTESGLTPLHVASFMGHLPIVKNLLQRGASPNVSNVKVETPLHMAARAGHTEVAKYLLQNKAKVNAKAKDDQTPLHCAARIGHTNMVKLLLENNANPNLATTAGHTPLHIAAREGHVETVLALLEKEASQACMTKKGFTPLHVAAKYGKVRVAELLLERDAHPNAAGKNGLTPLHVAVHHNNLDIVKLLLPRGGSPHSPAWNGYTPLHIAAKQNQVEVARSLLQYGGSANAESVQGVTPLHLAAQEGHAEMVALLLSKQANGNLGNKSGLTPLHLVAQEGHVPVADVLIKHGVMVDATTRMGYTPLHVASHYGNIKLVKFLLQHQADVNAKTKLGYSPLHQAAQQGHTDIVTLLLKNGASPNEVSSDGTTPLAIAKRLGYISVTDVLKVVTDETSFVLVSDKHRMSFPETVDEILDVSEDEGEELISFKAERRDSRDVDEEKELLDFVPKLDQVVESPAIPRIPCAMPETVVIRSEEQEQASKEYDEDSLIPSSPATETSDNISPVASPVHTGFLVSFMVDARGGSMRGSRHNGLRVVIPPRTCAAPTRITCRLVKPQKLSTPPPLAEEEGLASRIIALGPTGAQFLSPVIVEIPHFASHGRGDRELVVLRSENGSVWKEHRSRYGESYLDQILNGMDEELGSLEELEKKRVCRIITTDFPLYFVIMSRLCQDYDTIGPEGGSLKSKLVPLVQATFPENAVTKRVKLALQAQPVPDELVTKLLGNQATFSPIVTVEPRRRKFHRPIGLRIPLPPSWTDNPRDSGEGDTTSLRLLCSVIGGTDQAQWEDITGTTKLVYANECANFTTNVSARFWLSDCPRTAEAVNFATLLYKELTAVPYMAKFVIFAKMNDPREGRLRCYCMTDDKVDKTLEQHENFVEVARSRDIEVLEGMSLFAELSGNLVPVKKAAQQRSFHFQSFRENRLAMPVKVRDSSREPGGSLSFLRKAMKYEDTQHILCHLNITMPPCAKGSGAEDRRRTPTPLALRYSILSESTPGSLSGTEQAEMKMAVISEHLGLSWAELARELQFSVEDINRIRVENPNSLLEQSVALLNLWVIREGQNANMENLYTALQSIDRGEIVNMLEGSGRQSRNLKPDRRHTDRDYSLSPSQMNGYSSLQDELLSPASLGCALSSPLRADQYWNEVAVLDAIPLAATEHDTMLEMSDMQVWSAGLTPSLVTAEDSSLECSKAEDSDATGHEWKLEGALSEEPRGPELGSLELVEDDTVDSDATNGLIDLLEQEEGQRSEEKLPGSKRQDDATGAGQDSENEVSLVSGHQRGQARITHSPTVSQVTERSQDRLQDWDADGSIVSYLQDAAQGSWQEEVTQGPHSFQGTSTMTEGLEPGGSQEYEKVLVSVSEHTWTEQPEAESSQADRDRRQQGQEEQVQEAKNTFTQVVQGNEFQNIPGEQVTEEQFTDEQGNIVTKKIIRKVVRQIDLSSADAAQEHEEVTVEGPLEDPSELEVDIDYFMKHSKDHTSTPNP
UniProt Q9UJX4, whole entry, looked up: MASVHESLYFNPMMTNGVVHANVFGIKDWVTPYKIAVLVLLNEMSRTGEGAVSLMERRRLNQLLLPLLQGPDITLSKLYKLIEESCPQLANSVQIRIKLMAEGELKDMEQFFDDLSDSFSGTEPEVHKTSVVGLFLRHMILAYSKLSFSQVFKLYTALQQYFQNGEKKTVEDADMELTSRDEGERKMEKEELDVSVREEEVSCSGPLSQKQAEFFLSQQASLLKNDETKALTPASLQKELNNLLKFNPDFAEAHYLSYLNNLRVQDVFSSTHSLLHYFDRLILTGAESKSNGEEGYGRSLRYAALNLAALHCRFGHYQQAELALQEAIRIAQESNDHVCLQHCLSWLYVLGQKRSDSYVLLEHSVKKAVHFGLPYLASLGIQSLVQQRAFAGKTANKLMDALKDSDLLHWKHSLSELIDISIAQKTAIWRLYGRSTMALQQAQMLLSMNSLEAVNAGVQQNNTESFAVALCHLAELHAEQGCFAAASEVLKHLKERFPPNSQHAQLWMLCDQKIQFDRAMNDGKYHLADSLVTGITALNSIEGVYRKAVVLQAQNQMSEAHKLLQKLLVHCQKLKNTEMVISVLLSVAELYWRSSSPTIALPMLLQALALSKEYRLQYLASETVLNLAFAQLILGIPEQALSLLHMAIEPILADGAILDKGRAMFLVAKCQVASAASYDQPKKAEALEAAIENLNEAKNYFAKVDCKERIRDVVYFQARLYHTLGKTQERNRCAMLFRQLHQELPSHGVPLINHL
UniProt P52566: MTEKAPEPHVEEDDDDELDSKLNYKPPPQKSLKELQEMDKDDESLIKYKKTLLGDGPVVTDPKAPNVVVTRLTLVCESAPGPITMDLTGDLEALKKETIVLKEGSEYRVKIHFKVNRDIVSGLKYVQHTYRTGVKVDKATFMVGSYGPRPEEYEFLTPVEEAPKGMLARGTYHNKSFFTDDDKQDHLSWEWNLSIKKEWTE
UniProt Q9NWB6: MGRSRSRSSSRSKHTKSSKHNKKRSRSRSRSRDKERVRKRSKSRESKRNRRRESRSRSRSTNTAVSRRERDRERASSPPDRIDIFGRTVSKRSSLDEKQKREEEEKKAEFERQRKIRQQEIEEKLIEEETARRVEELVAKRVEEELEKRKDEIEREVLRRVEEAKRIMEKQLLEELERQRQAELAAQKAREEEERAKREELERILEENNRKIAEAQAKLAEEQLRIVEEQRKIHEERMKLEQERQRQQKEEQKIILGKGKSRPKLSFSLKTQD
UniProt Q63HQ0: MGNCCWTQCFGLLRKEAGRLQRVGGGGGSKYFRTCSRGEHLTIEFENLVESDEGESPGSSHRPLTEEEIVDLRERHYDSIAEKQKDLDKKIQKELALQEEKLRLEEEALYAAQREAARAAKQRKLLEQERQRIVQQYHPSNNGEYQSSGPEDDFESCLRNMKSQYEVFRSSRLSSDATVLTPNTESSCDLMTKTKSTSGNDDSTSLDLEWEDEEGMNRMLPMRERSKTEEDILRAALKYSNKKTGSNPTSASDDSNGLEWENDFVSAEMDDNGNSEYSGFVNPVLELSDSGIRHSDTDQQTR
UniProt P84085: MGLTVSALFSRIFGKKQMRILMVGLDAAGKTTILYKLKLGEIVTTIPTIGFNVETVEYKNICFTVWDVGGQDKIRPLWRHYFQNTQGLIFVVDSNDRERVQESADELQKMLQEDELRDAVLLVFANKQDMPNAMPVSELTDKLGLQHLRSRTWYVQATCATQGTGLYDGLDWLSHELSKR
UniProt Q6UXV4: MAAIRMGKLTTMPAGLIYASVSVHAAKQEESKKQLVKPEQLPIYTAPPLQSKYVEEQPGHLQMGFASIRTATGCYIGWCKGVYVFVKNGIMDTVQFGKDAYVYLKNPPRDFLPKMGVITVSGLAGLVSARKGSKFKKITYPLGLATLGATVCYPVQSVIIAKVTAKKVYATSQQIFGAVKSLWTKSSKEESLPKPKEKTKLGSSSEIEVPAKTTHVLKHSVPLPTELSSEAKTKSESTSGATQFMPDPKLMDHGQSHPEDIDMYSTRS
UniProt O95445: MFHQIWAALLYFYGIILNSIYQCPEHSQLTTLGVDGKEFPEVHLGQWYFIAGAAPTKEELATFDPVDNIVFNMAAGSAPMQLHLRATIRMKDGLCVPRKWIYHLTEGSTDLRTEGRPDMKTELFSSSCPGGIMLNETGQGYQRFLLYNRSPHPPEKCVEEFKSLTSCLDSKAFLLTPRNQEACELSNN
UniProt Q9H8Y5: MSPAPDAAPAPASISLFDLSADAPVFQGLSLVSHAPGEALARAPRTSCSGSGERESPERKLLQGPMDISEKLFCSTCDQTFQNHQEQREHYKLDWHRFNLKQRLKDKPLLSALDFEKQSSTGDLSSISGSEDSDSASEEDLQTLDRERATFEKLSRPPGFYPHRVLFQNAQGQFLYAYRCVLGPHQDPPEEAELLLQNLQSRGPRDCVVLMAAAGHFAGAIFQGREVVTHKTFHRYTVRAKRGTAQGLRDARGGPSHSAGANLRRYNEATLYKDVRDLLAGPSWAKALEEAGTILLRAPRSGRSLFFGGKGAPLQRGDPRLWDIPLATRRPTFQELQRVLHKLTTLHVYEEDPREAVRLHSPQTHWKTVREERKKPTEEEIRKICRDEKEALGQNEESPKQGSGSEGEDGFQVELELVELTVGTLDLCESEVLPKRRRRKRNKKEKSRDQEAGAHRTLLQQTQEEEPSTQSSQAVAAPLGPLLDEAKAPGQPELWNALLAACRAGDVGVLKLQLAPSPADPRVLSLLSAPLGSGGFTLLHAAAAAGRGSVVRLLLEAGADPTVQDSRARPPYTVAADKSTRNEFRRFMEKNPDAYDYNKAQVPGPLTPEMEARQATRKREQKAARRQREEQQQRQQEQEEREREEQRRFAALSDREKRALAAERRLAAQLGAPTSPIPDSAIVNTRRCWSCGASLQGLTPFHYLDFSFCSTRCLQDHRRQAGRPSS

Legend:
Assay in all cases: log2 fold change, soluble protein after heating vs DMSO (PISA); higher = thermal stabilisation; K562 cells, 10 uM, 30 min; active = over 0.2 and 3.5 SD of the protein, either way, in both replicates (recomputed)
[1] = compound: C#Cc1cccc(Nc2ncnc3cc(OCCOC)c(OCCOC)cc23)c1 [erlotinib]
In short: (§1)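 K562 cells at 2×10^6 cells/mL were treated for 30 min with 10 μM compound, and aliquots were heated for 3 min over 48°C-58°C before pooling. Extraction used PBS with 0.5% NP-40 at 4°C, and soluble protein was the supernatant after 21,000xg for 90 min, measured by TMTpro 16plex LC-MS/MS with channel sums equalised. Thermal stability values, relative to control samples and from duplicates, are log2 fold changes.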

[2] = compound: C/C(=N\NC(=O)C1=CC(=CC=C1)S(=O)(=O)N2CCOCC2)/C3=C(C=CC(=C3)Cl)O
In short: as §1

[3] = compound: C1=CC(=C(C=C1Cl)C2=NC3=NC=CN=C3C(=N2)NC4=CC=NC=C4)F
In short: as §1

[4] = compound: C1=CC(=CC=C1C2=NC3=C(N2)C=C(C=C3)C(=O)N)OC4=CC=C(C=C4)Cl
In short: as §1

[5] = compound: C1=CC2=C(C=CC(=C2)/C=C\3/C(=O)NC(=NCC4=CC=CS4)S3)N=C1
In short: as §1

[6] = compound: C1=CC2=NC=CN=C2C=C1/C=C/3\C(=O)NC(=O)S3
In short: as §1

[7] = compound: C1=CC=C(C=C1)C2=NC(=C(N2)C3=CC=NC=C3)C4=CC(=C(C=C4)Cl)O
In short: as §1

[8] = compound: C1=CC=C2C(=C1)C3=NNC4=CC=CC(=C43)C2=O
In short: as §1

[9] = compound: C1CCN(C1)C(=O)NC2=CC=CC(=C2)NC3=NC=C(C(=N3)NCCC4=CN=CN4)Br
In short: as §1

[10] = compound: C1CN(CCC1(CC2=CC=C(C=C2)Cl)N)C3=NC=NC4=C3C=CN4
In short: as §1

Row | Target | log2 fold change [1] | log2 fold change [2] | log2 fold change [3] | log2 fold change [4] | log2 fold change [5] | log2 fold change [6] | log2 fold change [7] | log2 fold change [8] | log2 fold change [9] | log2 fold change [10]
1 | ARFGEF2 (UniProt Q9Y6D5) | inactive: -0.034 | inactive: 0.084 | inactive: -0.004 | inactive: -0.014 | inactive: -0.002 | inactive: -0.007 | inactive: -0.045 | inactive: 0.012 | inactive: 0.042 | inactive: 0.005
2 | ANKRD46 (UniProt Q86W74) | inactive: 0.094 | inactive: 0.069 | inactive: 0.028 | inactive: -0.052 | inactive: 0.128 | inactive: 0.012 | inactive: -0.068 | inactive: 0.022 | inactive: -0.054 | inactive: -0.031
3 | API5 isoform 2 (UniProt Q9BZZ5) | inactive: 0.077 | inactive: 0.062 | inactive: 0.213 | inactive: -0.141 | inactive: -0.125 | inactive: -0.004 | inactive: 0.007 | inactive: -0.052 | inactive: -0.042 | inactive: -0.038
4 | ANK1 isoform 14 (UniProt P16157) | inactive: -0.128 | inactive: -0.023 | inactive: -0.403 | inactive: 0.028 | inactive: -0.001 | inactive: 0 | inactive: -0.043 | inactive: 0.024 | inactive: -0.038 | inactive: -0.344
5 | API5 (UniProt Q9BZZ5) | inactive: -0.025 | inactive: 0.023 | inactive: 0.051 | inactive: 0.005 | inactive: 0.007 | inactive: -0.003 | inactive: 0.003 | inactive: 0.022 | inactive: -0.01 | inactive: 0.041
6 | ANGPTL3 (UniProt Q9Y5C1) | inactive: -0.048 | inactive: -0.032 | inactive: -0.073 | inactive: 0.008 | inactive: 0.146 | inactive: -0.147 | inactive: -0.163 | inactive: -0.056 | inactive: -0.002 | inactive: 0.01
7 | ANAPC5 (UniProt Q9UJX4) | inactive: -0.052 | inactive: 0.039 | inactive: -0.048 | inactive: 0.034 | inactive: -0.023 | inactive: 0.008 | inactive: 0.005 | inactive: 0.043 | inactive: 0 | inactive: -0.055
8 | ARHGDIB (UniProt P52566) | inactive: 0.027 | inactive: -0.01 | inactive: 0.093 | inactive: -0.024 | inactive: 0.093 | inactive: 0.026 | inactive: 0.008 | inactive: -0.006 | inactive: 0.046 | inactive: 0
9 | ANKFY1 isoform 4 (UniProt Q9P2R3) | inactive: 0.055 | inactive: 0.077 | inactive: -0.216 | inactive: -0.058 | inactive: -0.081 | inactive: 0.005 | inactive: -0.044 | inactive: -0.062 | inactive: -0.016 | inactive: -0.172
10 | ARGLU1 (UniProt Q9NWB6) | inactive: 0.016 | inactive: 0.052 | inactive: -0.183 | inactive: 0.115 | active: -0.38 | inactive: 0.014 | inactive: -0.125 | inactive: -0.235 | inactive: -0.02 | inactive: -0.232
11 | ANTKMT (UniProt Q9BQD7) | inactive: 0.121 | inactive: 0.194 | inactive: 0.173 | inactive: -0.046 | inactive: 0.03 | inactive: -0.143 | inactive: 0.043 | inactive: 0.061 | inactive: 0.24 | inactive: -0.012
12 | ANKRD29 (UniProt Q8N6D5) | inactive: 0.243 | active: -0.445 | inactive: 0.083 | inactive: -0.021 | inactive: 0.223 | inactive: -0.015 | inactive: -0.046 | inactive: 0.098 | inactive: -0.025 | inactive: 0.096
13 | AP2S1 (UniProt P53680) | inactive: -0.1 | inactive: 0.148 | inactive: -0.056 | inactive: -0.018 | inactive: 0.052 | inactive: 0.013 | inactive: -0.011 | active: -0.27 | active: -0.354 | inactive: -0.003
14 | AP1AR (UniProt Q63HQ0) | inactive: -0.129 | inactive: -0.078 | inactive: 0.058 | inactive: 0.132 | inactive: 0.067 | inactive: 0.085 | inactive: -0.005 | inactive: -0.051 | inactive: 0.022 | inactive: 0.07
15 | ARF5 (UniProt P84085) | inactive: 0.024 | inactive: 0.018 | inactive: -0.011 | inactive: -0.016 | inactive: -0.019 | inactive: 0.042 | inactive: -0.028 | inactive: 0.016 | inactive: 0.025 | inactive: 0.042
16 | APOOL (UniProt Q6UXV4) | inactive: 0.013 | inactive: -0.025 | inactive: 0.032 | inactive: 0.013 | inactive: -0.004 | inactive: 0.018 | inactive: -0.011 | inactive: -0.004 | inactive: 0.017 | inactive: 0.082
17 | ARHGAP45 isoform 2 (UniProt Q92619) | inactive: -0.034 | inactive: 0.002 | inactive: -0.014 | inactive: 0.085 | inactive: 0.08 | inactive: 0.143 | inactive: 0.04 | inactive: -0.049 | inactive: 0.026 | inactive: 0.005
18 | ANKHD1 isoform 6 (UniProt Q8IWZ3) | inactive: 0.012 | inactive: 0.032 | inactive: -0.224 | inactive: -0.1 | inactive: -0.03 | inactive: -0.001 | inactive: -0.032 | inactive: 0.015 | inactive: -0.083 | inactive: -0.108
19 | ARFIP1 (UniProt P53367) | inactive: 0.217 | inactive: -0.121 | inactive: 0.087 | inactive: 0.094 | inactive: 0.115 | inactive: 0.62 | inactive: -0.126 | inactive: -0.013 | inactive: 0 | inactive: 0.044
20 | APOBR (UniProt Q0VD83) | inactive: 0.042 | inactive: 0.008 | inactive: 0.038 | inactive: -0.008 | inactive: 0.048 | inactive: 0.036 | inactive: -0.03 | inactive: -0.017 | inactive: 0.038 | inactive: 0.001
21 | ANKRD49 (UniProt Q8WVL7) | inactive: 0.01 | inactive: -0.018 | inactive: 0.021 | inactive: -0.004 | inactive: -0.112 | inactive: -0.036 | inactive: 0.046 | inactive: 0.056 | inactive: -0.005 | inactive: 0.051
22 | APOM (UniProt O95445) | inactive: -0.15 | inactive: -0.053 | inactive: 0.082 | inactive: 0.035 | inactive: 0.048 | inactive: -0.336 | inactive: -0.186 | inactive: -0.101 | inactive: 0.011 | inactive: 0.173
23 | APOA1 (UniProt P02647) | inactive: 0.001 | inactive: -0.164 | inactive: -0.059 | inactive: -0.051 | inactive: 0.132 | inactive: -0.143 | inactive: -0.188 | inactive: -0.06 | inactive: -0.065 | inactive: 0.069
24 | APLP2 (UniProt Q06481) | inactive: 0.003 | inactive: 0.009 | inactive: -0.023 | inactive: -0.034 | inactive: 0.023 | inactive: 0.004 | inactive: 0.044 | inactive: -0.03 | inactive: -0.047 | inactive: -0.002
25 | ANKZF1 (UniProt Q9H8Y5) | inactive: 0.142 | inactive: 0.032 | inactive: -0.141 | inactive: 0 | inactive: 0.015 | inactive: -0.108 | inactive: -0.035 | inactive: -0.039 | inactive: 0.057 | inactive: -0.022
26 | AP2A2 isoform 2 (UniProt O94973) | inactive: 0.007 | inactive: 0.014 | inactive: -0.004 | inactive: -0.012 | inactive: 0.007 | inactive: 0.004 | inactive: 0.072 | inactive: -0.118 | active: -0.284 | inactive: 0.028
27 | ARID1A (UniProt O14497) | inactive: 0.023 | inactive: -0.027 | inactive: -0.053 | inactive: 0.025 | inactive: 0.197 | inactive: 0.035 | inactive: -0.188 | inactive: -0.054 | inactive: -0.033 | inactive: -0.014
28 | ANXA5 (UniProt P08758) | inactive: -0.012 | inactive: 0.1 | inactive: 0.06 | inactive: -0.039 | inactive: 0.009 | inactive: 0.002 | inactive: 0.013 | inactive: 0.038 | inactive: 0.022 | inactive: -0.012
29 | ARFGEF1 (UniProt Q9Y6D6) | inactive: 0.016 | inactive: 0.025 | inactive: 0.03 | inactive: -0.03 | inactive: 0.016 | inactive: 0.015 | inactive: 0.101 | inactive: 0.051 | inactive: -0.013 | inactive: 0.043

A different layout for part of the listing above:
Row	Target	log2 fold change [1]	log2 fold change [2]	log2 fold change [3]	log2 fold change [4]	log2 fold change [5]	log2 fold change [6]	log2 fold change [7]	log2 fold change [8]	log2 fold change [9]	log2 fold change [10]
17	ARHGAP45 isoform 2 (UniProt Q92619)	inactive: -0.034	inactive: 0.002	inactive: -0.014	inactive: 0.085	inactive: 0.08	inactive: 0.143	inactive: 0.04	inactive: -0.049	inactive: 0.026	inactive: 0.005
18	ANKHD1 isoform 6 (UniProt Q8IWZ3)	inactive: 0.012	inactive: 0.032	inactive: -0.224	inactive: -0.1	inactive: -0.03	inactive: -0.001	inactive: -0.032	inactive: 0.015	inactive: -0.083	inactive: -0.108
19	ARFIP1 (UniProt P53367)	inactive: 0.217	inactive: -0.121	inactive: 0.087	inactive: 0.094	inactive: 0.115	inactive: 0.62	inactive: -0.126	inactive: -0.013	inactive: 0	inactive: 0.044
20	APOBR (UniProt Q0VD83)	inactive: 0.042	inactive: 0.008	inactive: 0.038	inactive: -0.008	inactive: 0.048	inactive: 0.036	inactive: -0.03	inactive: -0.017	inactive: 0.038	inactive: 0.001
21	ANKRD49 (UniProt Q8WVL7)	inactive: 0.01	inactive: -0.018	inactive: 0.021	inactive: -0.004	inactive: -0.112	inactive: -0.036	inactive: 0.046	inactive: 0.056	inactive: -0.005	inactive: 0.051
22	APOM (UniProt O95445)	inactive: -0.15	inactive: -0.053	inactive: 0.082	inactive: 0.035	inactive: 0.048	inactive: -0.336	inactive: -0.186	inactive: -0.101	inactive: 0.011	inactive: 0.173
23	APOA1 (UniProt P02647)	inactive: 0.001	inactive: -0.164	inactive: -0.059	inactive: -0.051	inactive: 0.132	inactive: -0.143	inactive: -0.188	inactive: -0.06	inactive: -0.065	inactive: 0.069
24	APLP2 (UniProt Q06481)	inactive: 0.003	inactive: 0.009	inactive: -0.023	inactive: -0.034	inactive: 0.023	inactive: 0.004	inactive: 0.044	inactive: -0.03	inactive: -0.047	inactive: -0.002
